According to US20190023807A1:
Results are given in words; binding and its absence hold for the method and conditions named. Some results given as binding are weak or reduced against the parent protein; the word gives no strength.

B1: single VH domain antibody 2.10 (VHH)
VHH: EVQLVESGGGVVQPGRSLRLSCAASGFTFSGYGMHWVRQAPGKGLEWVAYISYDGSNRYYADSVKGRFTISRDNSKKTLSLQMNSLRAEDTAVYYCAKDPAWGLRLGESSSYDFDIWGQGTMVTVSS
B2: single VH domain antibody 3.1 (VHH, not shown: small tags and cut ends)
VHH: EVQLVESGGGVVQPGRSLRLSCAASGFPLISYGMHWVRQAPGKGLEWVAFMTYDGSNRYYADSVKGRFTISRDNSKNTLYLQMNSLRDEDTALYYCARDRIVGGRVPDAFDIWGQGTMVTVSS
B3: single VH domain antibody 9.1 (VHH, not shown: small tags and cut ends)
VHH: QVQLQQWGAGLLKPSETLSLTCAVYGGSFSGHYWSWIRQPPGKGLEWIGDINHSGSTNYNPSLKSRVTISVDTSKNQFSLKLSSVTAADTAVYYCVRDYGDSRSLFDYWGQGTLVTVSS
B4: single VH domain antibody 10.1 (VHH, not shown: small tags and cut ends)
VHH: QVQLVESGGGLVQPGGSLRLSCAASGFTFSSYGMHWVRQAPGKGLEWVAFMSYDGSNKYYVDSVKGRFTISRDNSKNTLYLQMNSLRAEDTAVYYCAKGDYDFWSGYPDYDMDVWGQGTTVTVSS
B5: single VH domain antibody 8.1 (VHH, not shown: small tags and cut ends)
VHH: QVQLQQWGAGLLKPSETLSLTCAVYGGSFSGYYWSWIRQPPGKGLEWIGEINHSGSTNYNPSLKSRVTISVDTSKNQFSLKLSSVTAADTAVYYCARGPIPATAIPDAFDIWGQGTMVTVSS
B6: single VH domain antibody 12.1 (VHH, not shown: small tags and cut ends)
VHH: QVQLVESGGGVVQPGRSLRLSCAASGFTFSNFGMHWARQAPGKGLEWVAVISYDGNSKYYADTVKGRFTISRDNSKNTLYLEMNSLRADDTAVYYCAKGLWPPMDVRGQGTTVTVSS
B7: single VH domain antibody 11.1 (VHH, not shown: small tags and cut ends)
VHH: EVQLVESGGGLVKPGGSLRLSCAASGFNLISYGMYWVRQAPGKGLEWVAVISYDGSNKNYADSVKGRFTISRDNSKNTLFLQMNSLRVEDTAVYYCAKGGNALYSSGWPDDGFDIRGQGTMVTVSS
B8: single VH domain antibody 15.1 (VHH, not shown: small tags and cut ends)
VHH: EVQLVESGGGVVRPGGSLRLSCAASGFTFDDYGMSWVRQAPGKGLEWVSGINWNGDRTGYADSVKGRFTISRDNAKNSLYLQMNSLRAEDTALYYCGRENVIVPAATYWGQGTLVTVSS

biological target: cynomolgus PSMA, full-length, expressed on CHO cells (cynomolgus); test: FMAT Mirrorball direct cell binding, purified His-tagged VH titrated on CHO cells expressing cynomolgus PSMA, anti-His + anti-mouse Alexa Fluor-488; panel cynoPSMA-CHO binding

binding | Binder
binds | B1
binds | B2

biological target: cynomolgus PSMA, full-length, expressed on CHO cells (cynomolgus); test: FMAT periprep screen, Cyno PSMA CHO

binding | Binder
binds | B3
binds | B4
binds | B5
binds | B6
binds | B7
binds | B8
